Results as given in patent US20080249077A1, “17.Beta.-Fluoromethoxycarbonyl-Androst-4-En-3-One Compounds With a 17.Alpha.-Carbonate Sustituent” (priority 2005, published 2008).
Some results were stated once for a whole list of compounds, not compound by compound.

Molecular target: T1, glucocorticoid receptor (Homo sapiens, UniProt P04150)
T1 construct: A549 cells stably transfected with a reporter gene; endogenous in cells; host or cells: A549 cells
T1 sequence (P04150 1-777): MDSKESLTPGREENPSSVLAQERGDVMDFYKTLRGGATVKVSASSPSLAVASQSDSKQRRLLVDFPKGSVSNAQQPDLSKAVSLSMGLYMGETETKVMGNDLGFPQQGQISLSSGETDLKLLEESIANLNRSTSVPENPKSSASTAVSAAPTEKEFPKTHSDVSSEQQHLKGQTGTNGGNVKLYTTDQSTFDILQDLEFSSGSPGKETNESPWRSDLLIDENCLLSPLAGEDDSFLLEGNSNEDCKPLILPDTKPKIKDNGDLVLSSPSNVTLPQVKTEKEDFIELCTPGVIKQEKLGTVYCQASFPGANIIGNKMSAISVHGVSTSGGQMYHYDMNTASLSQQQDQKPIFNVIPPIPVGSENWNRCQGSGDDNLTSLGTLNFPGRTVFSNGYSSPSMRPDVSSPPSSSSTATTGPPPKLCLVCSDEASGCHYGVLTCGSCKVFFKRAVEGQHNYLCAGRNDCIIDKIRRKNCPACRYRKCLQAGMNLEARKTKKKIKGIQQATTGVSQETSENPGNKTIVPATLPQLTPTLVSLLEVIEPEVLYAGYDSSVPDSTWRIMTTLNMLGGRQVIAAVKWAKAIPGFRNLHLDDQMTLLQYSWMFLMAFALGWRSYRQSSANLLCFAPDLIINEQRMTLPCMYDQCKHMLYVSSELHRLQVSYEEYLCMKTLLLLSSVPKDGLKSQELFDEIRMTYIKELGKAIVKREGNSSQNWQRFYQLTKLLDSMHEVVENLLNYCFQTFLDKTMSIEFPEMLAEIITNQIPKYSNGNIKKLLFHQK
Assay: Assay for transrepression activity of the glucocorticoid agonists (NF-κB responsive ELAM promoter-sPAP reporter, TNF-stimulated A549 cells)
Assay type: cell-based
Conditions: compound 1 hour at 37° C., then TNF 10 ng/ml for 16 hours
Experimental: Assay for Transrepression Activity of the Glucocorticoid Agonists
A549 cells stably transfected with a reporter gene containing the NF-κB responsive elements from the ELAM gene promoter coupled to sPAP (secreted alkaline phosphatase) are treated with test compounds at appropriate doses for 1 hour at 37° C. The cells are then stimulated with tumour necrosis factor (TNF, 10 ng/ml) for 16 hours, at which time the amount of alkaline phosphatase produced is measured by a standard colourimetric assay. Dose response curves were constructed from which EC50 values were estimated.

Structure (SMILES) | pIC50 (transrepression)
COC1CCCCC1OC(=O)OC1(C(=O)OCF)C(C)CC2C3CC(F)C4=CC(=O)C=CC4(C)C3(F)C(O)CC21C (stereo not drawn) [Example 18, Fluoromethyl(6α,11β,16α,17α)-6,9-difluoro-11-hydroxy-16-methyl-17-[({[(1RS,2RS)-2-(methyloxy)cyclohexyl]oxy}carbonyl)oxy]-3-oxoandrosta-1,4-diene-17-carboxylate] | > 8.0
C[C@@H]1C[C@H]2[C@@H]3C[C@H](F)C4=CC(=O)C=C[C@]4(C)[C@@]3(F)[C@@H](O)C[C@]2(C)[C@@]1(OC(=O)OC1CCCC(C)(C)C1)C(=O)OCF (stereo partly drawn) [Example 19, Fluoromethyl(6α,11β,16α,17α)-17-({[(3,3-dimethylcyclohexyl)oxy]carbonyl}oxy)-6,9-difluoro-11-hydroxy-16-methyl-3-oxoandrosta-1,4-diene-17-carboxylate] | > 8.0
CCC(OC(=O)O[C@]1(C(=O)OCF)[C@H](C)C[C@H]2[C@@H]3C[C@H](F)C4=CC(=O)C=C[C@]4(C)[C@@]3(F)[C@@H](O)C[C@@]21C)C1CCCC1 (stereo partly drawn) [Example 20, Fluoromethyl(6α,11β,16α,17α)-17-({[(1-cyclopentylpropyl)oxy]carbonyl}oxy)-6,9-difluoro-11-hydroxy-16-methyl-3-oxoandrosta-1,4-diene-17-carboxylate] | > 8.0
CC(OC(=O)O[C@]1(C(=O)OCF)[C@H](C)C[C@H]2[C@@H]3C[C@H](F)C4=CC(=O)C=C[C@]4(C)[C@@]3(F)[C@@H](O)C[C@@]21C)C1CCCC1 (stereo partly drawn) [Example 21, Fluoromethyl(6α,11β,16α,17α)-17-({[(1-cyclopentylethyl)oxy]carbonyl}oxy)-6,9-difluoro-11-hydroxy-16-methyl-3-oxoandrosta-1,4-diene-17-carboxylate] | > 8.0
CCCC(CCC)OC(=O)O[C@]1(C(=O)OCF)[C@H](C)C[C@H]2[C@@H]3C[C@H](F)C4=CC(=O)C=C[C@]4(C)[C@@]3(F)[C@@H](O)C[C@@]21C [Example 22, Fluoromethyl(6α,11β,16α,17α)-6,9-difluoro-11-hydroxy-16-methyl-3-oxo-17-({[(1-propylbutyl)oxy]carbonyl}oxy)androsta-1,4-diene-17-carboxylate] | > 8.0
CC(OC(=O)O[C@]1(C(=O)OCF)[C@H](C)C[C@H]2[C@@H]3C[C@H](F)C4=CC(=O)C=C[C@]4(C)[C@@]3(F)[C@@H](O)C[C@@]21C)C(C)(C)C (stereo partly drawn) [Example 23, Fluoromethyl(6α,11β,16α,17α)-6,9-difluoro-11-hydroxy-16-methyl-3-oxo-17-({[(1,2,2-trimethylpropyl)oxy]carbonyl}oxy)androsta-14-diene-17-carboxylate] | > 8.0
C[C@@H]1C[C@H]2[C@@H]3C[C@H](F)C4=CC(=O)C=C[C@]4(C)[C@@]3(F)[C@@H](O)C[C@]2(C)[C@@]1(OC(=O)OCC1C(C)(C)C1(C)C)C(=O)OCF [Example 24, Fluoromethyl(6α,11β,16α,17α)-6,9-difluoro-11-hydroxy-16-methyl-3-oxo-17-[({[(2,2,3,3-tetramethylcyclopropyl)methyl]oxy}carbonyl)oxy]androsta-1,4-diene-17-carboxylate] | > 8.0
CCCC(OC(=O)O[C@]1(C(=O)OCF)[C@H](C)C[C@H]2[C@@H]3C[C@H](F)C4=CC(=O)C=C[C@]4(C)[C@@]3(F)[C@@H](O)C[C@@]21C)C(C)C (stereo partly drawn) [Example 25, Fluoromethyl(6α,11β,16α,17α)-6,9-difluoro-11-hydroxy-16-methyl-17-[({[1-(1-methylethyl)butyl]oxy}carbonyl)oxy]-3-oxoandrosta-1,4-diene-17-carboxylate] | > 8.0
C[C@@H]1C[C@H]2[C@@H]3C[C@H](F)C4=CC(=O)C=C[C@]4(C)[C@@]3(F)[C@@H](O)C[C@]2(C)[C@@]1(OC(=O)OC1C(C)(C)C1(C)C)C(=O)OCF [Example 26, Fluoromethyl(6α,11β,16α,17α)-6,9-difluoro-11-hydroxy-16-methyl-3-oxo-17-({[(2,2,3,3-tetramethylcyclopropyl)oxy]carbonyl}oxy)androsta-1,4-diene-17-carboxylate] | > 8.0
C[C@@H]1C[C@H]2[C@@H]3C[C@H](F)C4=CC(=O)C=C[C@]4(C)[C@@]3(F)[C@@H](O)C[C@]2(C)[C@@]1(OC(=O)O[C@@H]1C[C@@H]2CC[C@@]1(C)C2(C)C)C(=O)OCF [Example 27, Fluoromethyl(6α,11β,16α,17α)-6,9-difluoro-11-hydroxy-16-methyl-3-oxo-17-[({[(1S,2R,4S)-1.7.7-trimethylbicyclo[2.2.1]hept-2-yl]oxy}carbonyl)oxy]androsta-1,4-diene-17-carboxylate] | > 8.0
C[C@@H]1C[C@H]2[C@@H]3C[C@H](F)C4=CC(=O)C=C[C@]4(C)[C@@]3(F)[C@@H](O)C[C@]2(C)[C@@]1(OC(=O)O[C@H]1C[C@H]2CC[C@]1(C)C2(C)C)C(=O)OCF [Example 28, Fluoromethyl(6α,11β,16α,17α)-6,9-difluoro-11-hydroxy-16-methyl-3-oxo-17-[({[(1R,2S,4R)-1,7,7-trimethylbicyclo[2.2.1]hept-2-yl]oxy}carbonyl)oxy]androsta-1,4-diene-17-carboxylate] | > 8.0
CC1CC2C3CC(F)C4=CC(=O)C=CC4(C)C3(F)C(O)CC2(C)C1(OC(=O)OC1CC2CCC1(C)C2(C)C)C(=O)OCF [Example 29, Fluoromethyl(6α,11β,16α,17α)-6,9-difluoro-11-hydroxy-16-methyl-3-oxo-17-[({[(1R,2R,4R)-1,7,7-trimethylbicyclo[2.2.1]hept-2-yl]oxy}carbonyl)oxy]androsta-1,4-diene-17-carboxylate] | > 8.0
C[C@@H]1C[C@H]2[C@@H]3C[C@H](F)C4=CC(=O)C=C[C@]4(C)[C@@]3(F)[C@@H](O)C[C@]2(C)[C@@]1(OC(=O)O[C@@H]1[C@@H]2CC[C@@H](C2)C1(C)C)C(=O)OCF [Example 30, Fluoromethyl(6α,11β,16α,17α)-17-[({[(1R,2R,4S)-3,3-dimethylbicyclo[2.2.1]hept-2-yl]oxy}carbonyl)oxy]-6,9-difluoro-11-hydroxy-16-methyl-3-oxoandrosta-1,4-diene-17-carboxylate] | > 8.0
C[C@@H]1C[C@H]2[C@@H]3C[C@H](F)C4=CC(=O)C=C[C@]4(C)[C@@]3(F)[C@@H](O)C[C@]2(C)[C@@]1(OC(=O)OC1CCCC1)C(=O)OCF [Example 31, Fluoromethyl(6α,11β,16α,17α)-17-{[(cyclopentyloxy)carbonyl]oxy}-6,9-difluoro-11-hydroxy-16-methyl-3-oxoandrosta-1,4-diene-17-carboxylate] | > 8.0
CC(C)[C@H]1CC[C@H](C)C[C@@H]1OC(=O)O[C@]1(C(=O)OCF)[C@H](C)C[C@H]2[C@@H]3C[C@H](F)C4=CC(=O)C=C[C@]4(C)[C@@]3(F)[C@@H](O)C[C@@]21C [Example 32, Fluoromethyl(6α,11β,16α,17α)-6,9-difluoro-11-hydroxy-16-methyl-17-[({[(1 S,2R,5S)-5-methyl-2-(1-methylethyl)cyclohexyl]oxy}carbonyl)oxy]-3-oxoandrosta-1,4-diene-17-carboxylate] | > 8.0
C[C@@H]1C[C@H]2[C@@H]3C[C@H](F)C4=CC(=O)C=C[C@]4(C)[C@@]3(F)[C@@H](O)C[C@]2(C)[C@@]1(OC(=O)O[C@H]1C(C)(C)[C@H]2CC[C@]1(C)C2)C(=O)OCF [Example 33, Fluoromethyl(6α,11β,16α,17α)-6,9-difluoro-11-hydroxy-16-methyl-3-oxo-17-[({[(1R,2R,4S)-1,3,3-trimethylbicyclo[2.2.1]hept-2-yl]oxy}carbonyl)oxy]androsta-1,4-diene-17-carboxylate] | > 8.0
C[C@@H]1[C@H]2C[C@@H](C[C@H]1OC(=O)O[C@]1(C(=O)OCF)[C@H](C)C[C@H]3[C@@H]4C[C@H](F)C5=CC(=O)C=C[C@]5(C)[C@@]4(F)[C@@H](O)C[C@@]31C)C2(C)C [Example 34, Fluoromethyl(6α,11β,16α,17α)-6,9-difluoro-11-hydroxy-16-methyl-3-oxo-17-[({[(1R,2R,3R,5S)-2,6,6-trimethylbicyclo[3.1.1]hept-3-yl]oxy}carbonyl)oxy]androsta-1,4-diene-17-carboxylate] | > 8.0
